Test results: the supplement of paper PMC8616043
Where a name gives a salt, the structure may show the parent alone. Some of the results follow. Single values are uncertain here, since repeats match poorly.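 The cells are human U-2 OS cells that stably carry a GFP sensor with a nuclear import signal and a classical export signal. They were transfected to make PR50, a 50-repeat proline–arginine dipeptide protein from the ALS/FTD gene C9ORF72. Each well's nuclear-minus-cytoplasm GFP signal was scaled from in-plate DMSO (low) to PR-only wells (high), then scored against the other test wells on the plate; compounds scoring well below zero were called hits that reverse the PR effect.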

system: U-2 OS NCT-C biosensor cells expressing PR50; test: Z-score of normalised NCT-C biosensor translocation index in PR50-expressing cells; higher = more nuclear biosensor (more disrupted nuclear export); settings: 3 µM; 24 h

Compound | Z-score
O=C1Cc2c([nH]c3ccc(Br)cc23)-c2ccccc2N1 [Kenpaullone] | inactive: 0.12
Cc1coc2c1C(=O)C(=O)c1c-2ccc2c1CCCC2(C)C [Tanshinone IIA] | inactive: 0.558
CO/N=C(\C(=O)N[C@@H]1C(=O)N2C(C(=O)[O-])=C(C[N+]3(C)CCCC3)CS[C@H]12)c1csc(N)n1 [Cefepime·2HCl Hydrate] | inactive: 0.434
CCOC(=O)CCNc1cc(N2CCc3ccccc3CC2)nc(-c2cccnc2)n1 | active: -2.47
OC(c1cc(C(F)(F)F)nc2c(C(F)(F)F)cccc12)C1CCCCN1 (stereo not drawn) [Mefloquine·HCl] | inactive: 0.0195
C[n+]1ccccc1CC(=O)c1ccc(Br)cc1 | inactive: -1.1
NC[C@@H](O)c1ccc(O)c(O)c1 [L(-)-  Norepinephrine bitartrate] | inactive: -0.0288
NC[C@@H](O)c1ccc(O)c(O)c1 (racemic) [(+-)-  Norepinephrine (+)bitartrate salt] | inactive: 0.303
Cc1cc(Cn2cnc3c2C[C@@H](C(=O)O)N(C(=O)C(c2ccccc2)c2ccccc2)C3)ccc1N | inactive: 2.67
CC1(C)C[C@@H]1C(=O)N/C(=C\CCCCSC[C@H](N)C(=O)O)C(=O)O [Cilastatin·Na] | inactive: 0.762
CCCCCCC(=O)OC1CC(C)(C)NC(C)(C)C1 [TMPH  hydrochloride] | inactive: 0.561
Oc1cc2c(cc1O)CN(C(=S)NCCc1ccc(Cl)cc1)CCC2 [Capsazepine] | inactive: -0.232
CCCCCN(CCCCC)C(=O)C(CCC(=O)O)NC(=O)c1ccc(Cl)c(Cl)c1 (stereo not drawn) [Lorglumide sodium] | inactive: -0.23
COc1ccc(S(=O)(=O)Nc2c(C)cc(C)cc2C)cc1 | inactive: -0.687
COc1ccc2[nH]c([S@@+]([O-])Cc3ncc(C)c(OC)c3C)nc2c1 [Esomeprazole Potassium] | inactive: 0.695
COc1ccc2[nH]c([S@@+]([O-])Cc3ncc(C)c(OC)c3C)nc2c1 [Esomeprazole magnesium dihydrate] | inactive: -0.241
Cc1cc(NC2CCCCC2)nc(-n2nc(C)cc2C)n1 | inactive: -0.307
NCCSSCCN [Cystamine dihydrochloride] | inactive: -0.445
Nc1nc2c(ncn2COCCO)c(=O)[nH]1 [Acyclovir] | inactive: 0.653
CC1(C)SCCN(S(=O)(=O)c2ccc(OCC#CCO)cc2)[C@H]1C(=O)NO [Apratastat] | inactive: -0.947
COc1c(N2C[C@@H]3CCCN[C@@H]3C2)c(F)cc2c(=O)c(C(=O)O)cn(C3CC3)c12 [Moxifloxacin·HCl] | inactive: 0.613
O=C(O)C(Cc1c[nH]c2ccccc12)N1C(=O)c2ccccc2C1=O (stereo not drawn) | active: -1.97
CCOc1cc(CC(=O)N[C@@H](CC(C)C)c2ccccc2N2CCCCC2)ccc1C(=O)O [Repaglinide] | inactive: -0.522

Compound | Z-score
Cc1c(F)ccc(C(=O)Nc2cc([N+](=O)[O-])ccc2N2CCN(C)CC2)c1Cl | active: -3.05
NC(CCCP(=O)(O)O)C(=O)O (stereo not drawn) [D(-)-2-Amino-5-  phosphonopentan oic acid] | inactive: 0.06
C#C[C@]1(O)CC[C@H]2[C@@H]3CCc4cc(O)ccc4[C@H]3CC[C@@]21C [Ethinyl Estradiol] | inactive: 0.611
Nc1nc(N)c2nc(CNc3ccc(C(=O)N[C@@H](CCC(=O)O)C(=O)O)cc3)cnc2n1 [Aminopterin] | inactive: 0.578
CCCCN(Cc1ccc(C(=O)NO)cc1)C(=O)Nc1ccccc1 [Nexturastat A] | inactive: -1.37
CC[C@H](NC(=O)c1c(C)c(-c2ccccc2)nc2ccccc12)c1ccccc1 | inactive: 0.931
CCOC(=O)c1ncn2c1CN(C)C(=O)c1cc(F)ccc1-2 [Flumazenil] | inactive: -0.679
O=NN(CCCl)C(=O)NCCCl [Carmustine] | inactive: 1.3
CN1[C@@H]2CC[C@H]1CC(OC(=O)c1c[nH]c3ccccc13)C2 (stereo partly drawn) [3-Tropanyl-indole- 3-carboxylate hydrochloride] | inactive: -0.327
COc1cc(C(C)=O)ccc1OCCCN1CCC(c2noc3cc(F)ccc23)CC1 [Iloperidone] | inactive: 0.0165
CCCC1O[C@@H]2C[C@H]3[C@@H]4CCC5=CC(=O)C=C[C@]5(C)[C@H]4[C@@H](O)C[C@]3(C)[C@]2(C(=O)CO)O1 (stereo partly drawn) [Budesonide] | inactive: 1.01
COC(=O)c1c(C)[nH]c(C)c1C(=O)c1ccccc1Cc1ccccc1 | inactive: -0.409
O=C(c1ccc2c(c1)OCCO2)N1CCCCC1 | inactive: 1.08
CC(C)(CN1C(=O)C(Cl)=C(Cl)C1=O)CN1C(=O)C(Cl)=C(Cl)C1=O | inactive: 4.46
CC(C)[C@H]1c2ccc(F)cc2CC[C@@]1(CCN(C)CCCc1nc2ccccc2[nH]1)OC(=O)C1CC1 | inactive: -0.459
CC(C)OC(=O)CCC/C=C\C[C@@H]1[C@@H](/C=C/[C@@H](O)COc2cccc(C(F)(F)F)c2)[C@H](O)C[C@@H]1O [Travoprost] | inactive: -0.368
O=C1CN(/N=C/c2ccc(-c3ccc([N+](=O)[O-])cc3)o2)C(=O)N1 [Dantrolene sodium] | inactive: -0.515
C[C@H](N)[C@H](O)c1cccc(O)c1 [Metaraminol Bitartrate] | inactive: 0.209
O=c1cc2c(=O)oc3cc(O)c(O)oc3c2c(O)c1O [Galloflavin] | inactive: -0.762
OC1c2ccccc2N=C2CCCN21 (stereo not drawn) [Peganole] | inactive: 0.453
NCCCC(N)(C(=O)O)C(F)F (racemic) [DL-alpha- Difluoromethyl ornithine HCl] | inactive: -0.267
CC(C)N(CCCNC(=O)Nc1ccc(C(C)(C)C)cc1)C[C@H]1O[C@@H](n2cc(Br)c3c(N)ncnc32)[C@H](O)[C@@H]1O | inactive: -1.3
COc1ccc(-c2csc(NC(=O)[C@H]3CCCCN3S(=O)(=O)c3ccc(C)cc3)n2)cc1 | inactive: -0.199

Quoted from the listing.
Value of O=NN(CCCl)C(=O)NCCCl [Carmustine] under Z-score: inactive: 1.3
Value of C#C[C@]1(O)CC[C@H]2[C@@H]3CCc4cc(O)ccc4[C@H]3CC[C@@]21C [Ethinyl Estradiol] under Z-score: inactive: 0.611
Value of CC(C)(CN1C(=O)C(Cl)=C(Cl)C1=O)CN1C(=O)C(Cl)=C(Cl)C1=O under Z-score: inactive: 4.46

Laid out differently: results already given.
Compound	Z-score
CC(C)OC(=O)CCC/C=C\C[C@@H]1[C@@H](/C=C/[C@@H](O)COc2cccc(C(F)(F)F)c2)[C@H](O)C[C@@H]1O [Travoprost]	inactive: -0.368
C[C@H](N)[C@H](O)c1cccc(O)c1 [Metaraminol Bitartrate]	inactive: 0.209

(next part)

Compound | Z-score
c1ccc2c(c1)CN1CCCC1=N2 [Desoxypeganine] | inactive: -1.08
NC(N)=NC(=O)c1nc(Cl)c(N2CCCCCC2)nc1N [5-(N,N-  hexamethylene) amiloride] | inactive: 0.353
Cc1c(C(=O)O)c(O)cc2c1C(=O)c1c(O)c([C@@H]3O[C@H](CO)[C@@H](O)[C@H](O)[C@H]3O)c(O)c(O)c1C2=O [Carminic acid] | inactive: -0.604
O=c1cc(-c2ccccc2)oc2cc(O)cc(O)c12 [Chrysine] | inactive: -0.385
Nc1c2c(nc3ccccc13)CCCC2 [Tacrine·HCl] | inactive: 0.211
Nc1c2c(nc3ccccc13)CCCC2 [9-Amino-1,2,3,4-  tetrahydroacridine hydrochloride] | inactive: 0.459
c1ccc2c3c([nH]c2c1)[C@H]1[C@@H]2CC[C@@H]([C@@H]4CCCN[C@@H]42)N1CC3 [Nitrarine·2HCl] | inactive: -0.513
CCN(CC)C(=S)SSC(=S)N(CC)CC [Disulfiram] | inactive: -0.526
C=C[C@@]1(C)CC(=O)[C@]2(O)[C@@]3(C)[C@@H](O)CCC(C)(C)[C@@H]3[C@H](O)[C@H](OC(C)=O)[C@@]2(C)O1 [Forskolin] | inactive: 1.41
CC1(C)O[C@@H]2C[C@H]3[C@@H]4CCC5=CC(=O)C=C[C@]5(C)[C@H]4[C@@H](O)C[C@]3(C)[C@]2(C(=O)CO)O1 [Desonide] | inactive: -0.0249
c1ccc(-c2ccccn2)nc1 [2,2'-Bipyridyl] | inactive: -0.233
COc1ccccc1N1CCN(CCN(C(=O)c2ccc(F)cc2)c2ccccn2)CC1 [p-MPPF  dihydrochloride] | inactive: -0.0326
CCNC(=O)CCC/C=C\C[C@@H]1[C@@H](/C=C/[C@@H](O)CCc2ccccc2)[C@H](O)C[C@@H]1O [Bimatoprost] | inactive: -0.23
CCCCOc1ccc(CC/C=C2\SC(=O)N(CCN)C2=O)cc1 [K145 hydrochloride] | inactive: -0.464
COC(=O)C1=C(C)NC(C)=C(C(=O)OC2CCCN(Cc3ccccc3)C2)C1c1cccc([N+](=O)[O-])c1 (stereo not drawn) [Benidipine hydrochloride] | inactive: 0.584
C[C@]12C[C@H](O)[C@H]3[C@@H](CCC4=CC(=O)CC[C@@]43C)[C@@H]1CC[C@@H]2C(=O)CO [Corticosterone] | inactive: 3.01
O=C(/C=C/c1ccc(O)c(O)c1)c1ccc(O)cc1O [Butein] | inactive: 0.973
COC(=O)C1=C(C)NC(C)=C([N+](=O)[O-])C1c1ccccc1C(F)(F)F (racemic) | inactive: 2.53
NC[C@H]1O[C@H](O[C@H]2[C@H](O)[C@@H](O[C@H]3O[C@H](CO)[C@@H](O)[C@H](N)[C@H]3O)[C@H](N)C[C@@H]2N)[C@H](O)[C@@H](O)[C@@H]1O [Kanamycin Sulfate] | inactive: -0.0399
NC[C@H]1O[C@H](O[C@H]2[C@H](O)[C@@H](O[C@H]3O[C@H](CO)[C@@H](O)[C@H](N)[C@H]3O)[C@H](N)C[C@@H]2N)[C@H](O)[C@@H](O)[C@@H]1O [Kanamycin sulfate] | inactive: -0.535
O=C(CCCCCCC(=O)Nc1ccccc1)NO [Vorinostat] | inactive: 0.911
CCc1ccc2c(-c3cccc(Cl)c3)nc(=O)n(CC)c2n1 | inactive: -0.32
